This passage reports collected starting material results from patent publication US12269021B2, “Artificial protein catalyst” (Glytech, Inc., priority 2019, dated 2025).

The nature of this data set: biocompatibility: RCM of 1d in serum-containing media. Format: biochemical. Particulars: 37° C., 2 hours.

For the compound `C=CCC(CC=C)(COC(=O)c1ccccc1)COC(=O)c1ccccc1` [1d, 4,4-bis((benzoyloxy)methyl)-1,6-heptadiene], the collected starting material amounted to 8% (1:8:1 fetal bovine serum/DMEM medium/dioxane) and 3% (1:8:1 normal rat serum/PBS buffer/dioxane).
